In publication PMC6836476:
For at least one entry, the source does not settle the construct or the ends of the probe. At least one result comes from cells or an extract, where the contact may be indirect. At least one verdict rests on a figure or table, not on a statement of the authors.

Chains of the proteins cited; added tags and fusions are not shown. Lines headed by an entry give the natural chain unless they say otherwise; changes in a name come on top.
UniProt O88942: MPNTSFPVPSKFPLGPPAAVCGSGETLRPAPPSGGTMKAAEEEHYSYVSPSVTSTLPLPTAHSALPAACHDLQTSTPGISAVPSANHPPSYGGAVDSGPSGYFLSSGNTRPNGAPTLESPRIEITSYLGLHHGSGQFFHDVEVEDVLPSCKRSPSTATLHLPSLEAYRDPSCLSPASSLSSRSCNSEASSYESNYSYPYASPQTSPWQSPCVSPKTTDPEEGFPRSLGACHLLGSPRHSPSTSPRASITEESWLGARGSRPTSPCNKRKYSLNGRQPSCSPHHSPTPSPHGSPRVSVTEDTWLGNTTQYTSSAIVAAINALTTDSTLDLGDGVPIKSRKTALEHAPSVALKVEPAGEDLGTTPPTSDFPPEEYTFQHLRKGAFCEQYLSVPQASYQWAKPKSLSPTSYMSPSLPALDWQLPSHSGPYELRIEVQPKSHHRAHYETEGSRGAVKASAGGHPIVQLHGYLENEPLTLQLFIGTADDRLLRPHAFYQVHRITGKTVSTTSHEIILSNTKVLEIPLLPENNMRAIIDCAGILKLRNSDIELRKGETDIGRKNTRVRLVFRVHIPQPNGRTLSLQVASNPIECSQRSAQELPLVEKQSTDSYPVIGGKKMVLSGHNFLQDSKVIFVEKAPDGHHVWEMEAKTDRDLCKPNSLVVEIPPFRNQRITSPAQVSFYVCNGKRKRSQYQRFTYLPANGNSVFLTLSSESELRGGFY

Target: NFATc1 (mouse) (UniProt O88942)
Experiment: EMSA with supershift
Settings: wild-type CD4+ T cells, CD3/CD28 stimulated overnight, supershift outcome itself not described in text; EMSA: binding buffer not specified, 5% polyacrylamide gel, 3x10^5 cpm probe; extract in 20 mM HEPES pH 7.9, 0.4 M NaCl, 1 mM EDTA, 1 mM EGTA, 1 mM DTT; protein in an extract; label: 32P

## GCCCAAAGAGGAAAATTTGTTTCATACAG (double strand) [NFAT probe (IL-2 promoter-derived)]
  binding result: binds
